# Measurements taken from PubChem BioAssay AID652054 (National Center for Advancing Translational Sciences (NCATS), 2013).
# Sequences of proteins named here, by UniProt entry; tags and fusion partners are left off.
# UniProt P35462, whole entry, looked up: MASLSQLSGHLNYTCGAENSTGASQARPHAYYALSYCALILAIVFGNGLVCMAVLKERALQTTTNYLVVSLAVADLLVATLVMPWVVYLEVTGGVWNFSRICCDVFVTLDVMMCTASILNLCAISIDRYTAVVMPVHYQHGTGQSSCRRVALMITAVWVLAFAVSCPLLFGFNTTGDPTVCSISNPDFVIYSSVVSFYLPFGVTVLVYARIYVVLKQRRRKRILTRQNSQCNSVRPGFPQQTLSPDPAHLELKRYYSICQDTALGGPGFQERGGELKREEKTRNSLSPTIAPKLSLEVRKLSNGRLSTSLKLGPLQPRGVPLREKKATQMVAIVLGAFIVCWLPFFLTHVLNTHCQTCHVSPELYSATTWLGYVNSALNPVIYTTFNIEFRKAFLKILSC
# The whole screen tested about 360,000 compounds, of which about 9,100 (2.5%) were called active. The shares of active, inactive and inconclusive entries below differ from those in the screen. Cut-off read from the data, not from the text of the source: active = max response below about -50%; inconclusive = no clear call, values can overlap the other calls; inactive = above that.
# Target: D(3) dopamine receptor (Homo sapiens) (UniProt P35462)
# Experiment: qHTS of D3 Dopamine Receptor Antagonist: qHTS
# Conditions: D3R cells, DiscoveRx beta-arrestin luminescence, antagonist mode; hits give low values
# Outline: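 Cells expressing the human receptor were seeded at 1500 cells/well, incubated overnight at 37 degrees C in 5% CO2, then exposed to library compounds with dopamine controls for 90 minutes at 37 degrees C before luminescent detection.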
# % is set by controls: 0 for no effect and ±100 for the full control effect.
row,SMILES,"max response, negative = inhibition"
1,O=C(Nc1ccccc1)NC1CCN(Cc2nnnn2C2CCCCC2)CC1,active: -69.8%
2,CCc1ccc(-c2ccc(SCC(=O)NCC3CCCO3)nn2)cc1 (stereo not drawn),inactive: -19.9%
3,O=C(O)c1cn(-c2ccccc2)nc1C(=O)O,inactive: -3.4%
4,CCNc1nc(NCc2ccccc2)nc(SCC(N)=O)n1,inactive: -4.54%
5,O=c1c(CN2CCN(Cc3ccccc3)CC2)coc2ccc(Cl)cc12,inconclusive: -36.5%
6,O=C(N/N=C/c1cccc(Oc2ccccc2)c1)c1cccc(O)c1,inactive: -1.98%
7,COc1ccc(CCN2C(=O)c3ccccc3C2c2nnnn2-c2c(C)cccc2C)cc1OC (stereo not drawn),inconclusive: -33.1%
8,CN(C)Cc1c(C(=O)N/N=C/c2ccncc2)nnn1-c1nonc1N,inconclusive: -35.9%
9,CNCCCOc1cccc(Oc2ccccc2)c1,inconclusive: -36.9%
10,O=C(NCc1ccccc1Cl)c1ccc2c(=O)n(CCCN3CCCC3=O)c(=S)[nH]c2c1,inconclusive: -34.4%
11,O=C(O)CN1CCN(Cc2ccc(F)cc2Cl)C1=O,inconclusive: -41.9%
12,COC(=O)c1c(NC(=O)/C=C/C(=O)O)sc(C)c1-c1ccc(C)cc1,inconclusive: -36.5%
13,COCCN1CC(=O)N2C(c3cccc(OC)c3)c3[nH]c4ccccc4c3C[C@H]2C1=O (stereo partly drawn),inactive: -10.1%
14,CCC1=C(c2cc(OC)c(OC)c(OC)c2)C2(CCCC2)C(=O)O1,inactive: 0%
15,CCN1CCN(c2cc(C)c3cc(NC(=O)c4ccc(Br)o4)ccc3n2)CC1,inconclusive: -34.9%
16,Nc1ccc(Sc2ccc([N+](=O)[O-])cc2)cc1,inactive: -14.2%
17,COC(=O)c1c(NC(=O)CSc2nnc3ccccn23)sc2c1CCC2,inactive: 18.4%
18,Cc1ccc(/C=C/C(=O)OCC(=O)N(C)c2c(N)n(Cc3ccccc3)c(=O)[nH]c2=O)o1,inactive: 1.02%
19,O=C1C2CCCN2C(=O)N1CCCN1CCN(c2cccc(Br)c2)CC1 (stereo not drawn),active: -77.8%
20,Cc1cccc(/C=N\NC(=O)c2csnn2)c1,active: -91.4%
21,Cc1ccc(S(=O)(=O)N(CCC(=O)N2CCOCC2)c2ccccc2)cc1,inactive: 19.7%
22,C[C@@H]1[C@H]2[C@@H]3CC[C@@H](C3)[C@H]2CN[C@H]1c1cn(Cc2ccccc2)c2ccccc12,inactive: 21.1%

row,SMILES,"max response, negative = inhibition"
1,Fc1ccc(-n2cc(-c3ccccc3)c3c(N4CCOCC4)ncnc32)cc1,inconclusive: -37.4%
2,O=C(c1ccc(Br)o1)N1CCN(Cc2ccccc2Cl)CC1,inactive: 3.19%
3,Cc1nc(SCC(=O)c2ccccc2)c(C#N)c(-c2ccco2)c1C(=O)NCc1ccco1,inconclusive: -38.8%
4,O=C(Nc1ccncc1)C1CCN(S(=O)(=O)c2c(Cl)cccc2Cl)CC1,inactive: 0%
5,CCOC(=O)c1ccccc1NC(=O)CSc1nnnn1C,inconclusive: -47.8%
6,COc1ccc([N+](=O)[O-])cc1/C=N/Nc1nn[nH]n1,inconclusive: -32.6%
7,Cn1cc(CN2CCc3ccccc3C2)c2ccccc21,active: -94.8%
8,CCCN(CCC)CCCNS(=O)(=O)c1ccc2c(c1)oc(=O)n2C,inconclusive: -31.1%
9,O=C(CCC(=O)N1CCOc2ccc(Cl)cc21)NCCCN1CCC(Cc2ccccc2)CC1,active: -70.6%
10,CCc1n[nH]c(=S)n1/N=C/c1ccccc1OCc1ccc(Cl)cc1,inactive: -9.94%
11,COc1cc(/C=C/C(=O)c2ccc3c(c2)OCCO3)cc(Br)c1OCC(=O)N(C)C,inconclusive: -42%
12,CC(NC(=O)C1CCN(CCOc2ccc(Cl)cc2)CC1)c1cccc2ccccc12 (stereo not drawn),active: -52.6%
13,CCOC(=O)/C(=C\c1ccc(C)cc1)NC(=O)c1ccccc1,inactive: 7.55%
14,CC(C)N1CCc2c(sc(NC(=O)Cc3ccccc3)c2C#N)C1,inconclusive: -30.1%
15,CCOc1ccccc1C(=O)NC1CC2CCCC(C1)N2Cc1ccccc1 (stereo not drawn),active: -77.3%
16,Oc1c(CN2CCCCC2)ccc2cccnc12,inconclusive: -30.1%
17,CC[C@]12c3[nH]c4cc(CCC(=O)N(C)C)ccc4c3CCN1C(=O)[C@@H](CC(=O)NCCCn1ccnc1)C[C@@H]2C(=O)N1CCN(C(=O)c2ccco2)CC1,inactive: 5.08%
18,Cc1ccccc1NC(=O)CN1C(=O)NC2(CCCCC2)C1=O,inconclusive: -34%
19,Cc1cc(C)cc(OCC(=O)NCc2nc(-c3ccccc3)no2)c1,inconclusive: -43%
20,CCOc1ccc(-c2ccc(NS(=O)(=O)c3ccc([N+](=O)[O-])cc3)cc2)nn1,inactive: -8.44%
21,COc1ccccc1CNC(=O)c1cnc2ccccn2c1=O,inconclusive: -42.7%
22,CCCCn1nnc(NC(=S)NC(=O)c2cccs2)n1,inconclusive: -37.3%

row,SMILES,"max response, negative = inhibition"
1,Cc1cc2ccccc2c(=O)n1CC(=O)NCC(=O)N1CCN(c2ccccc2)CC1,active: -52.1%
2,CCOc1ccccc1C(=O)N/N=C/c1coc2ccc(Cl)cc2c1=O,inactive: -5.71%
3,COc1ccc(C(=O)N2CCC(C)(C(=O)O)C2)c(OC)c1 (stereo not drawn),inconclusive: -36.3%
4,O=C(COC(=O)/C=C/C(=O)OCC(=O)NC12CC3CC(CC(C3)C1)C2)NC12CC3CC(CC(C3)C1)C2,active: -58.7%
5,Cc1nn(CCC(N)=S)c2nc(-c3cccs3)cc(C(F)(F)F)c12,inconclusive: -31.7%
6,O=C(Nc1ccccc1)C1CCN(C(=O)c2ccco2)CC1,inactive: 10.2%
7,Clc1ccc(CNc2nc(CN3CCOCC3)nc3scc(-c4ccccc4)c23)cc1,inactive: -4.96%
8,O=C1C=C(c2ccc3cc[nH]c3c2)C[C@@H](c2ccc3c(c2)OCO3)C1,inactive: -8.19%
9,CC(c1nnc(SCC(=O)N2CC(=O)Nc3ccccc32)n1Cc1ccccc1)N(C)C (stereo not drawn),inconclusive: -38.8%
10,O=S(=O)(NCC(Nc1ccc(Cl)cc1)c1ccccc1)c1ccc(Cl)cc1 (stereo not drawn),inconclusive: -37.2%
11,CCC1(CC)NC(=O)N(CC(=O)OCC(=O)Nc2sccc2C#N)C1=O,inconclusive: -35.8%
12,CCN1C(=NCC(C)C)N[C@@H](c2cccc(C(F)(F)F)c2)C(C(=O)OC)=C1C,inconclusive: -37.1%
13,CCc1nc2ccc(C(=O)N(C)CCN(C)C)cn2c1N(CC)CCOC,inconclusive: -40.7%
14,O=C(CC1C(=O)NC2CCCCC2N1C(=O)c1ccc([N+](=O)[O-])cc1)Nc1ccccc1 (stereo not drawn),inactive: 18.2%
15,CC(=O)Oc1ccc(/C(C)=N/N2CCN(Cc3ccc(C)cc3)CC2)cc1,inconclusive: -30.3%
16,COc1ccc(CN2CCn3ncc(C(=O)Nc4ccccc4)c3C2=O)cc1,inconclusive: -46%
17,Cn1c(=O)c2c(nc(CN3CCN(Cc4ccccc4)CC3)n2CCN2CCOCC2)n(C)c1=O,inconclusive: -32.7%
18,Cc1cccc(C(=O)N/N=C2\CS(=O)(=O)N(C)c3ccsc32)c1,inactive: -21.5%
19,O=C(NCC(=O)N1CCOCC1)c1ccc(Cl)cc1,inactive: 2.75%
20,COC(=O)Cc1ccc2sc(-c3ccccc3)nc2c1,inconclusive: -38.3%
21,COc1cc2c(cc1OC)-c1cc3ccc4c(c3c[n+]1CC2)OCO4,inconclusive: -31.8%
22,Cc1ccc(C(=O)NCC(c2ccco2)N2CCCCC2)s1 (stereo not drawn),inconclusive: -37.6%

row,SMILES,"max response, negative = inhibition"
1,O=[N+]([O-])c1cc(Br)ccc1NS(=O)(=O)c1ccccc1,inactive: -9.74%
2,S=C(NCCc1ccccc1)N1CCN(C(c2ccccc2)c2ccccc2)CC1,inactive: 0%
3,C[C@@H]1CN([C@H](C)CO)C(=O)CCCn2cc(nn2)CO[C@H]1CN(C)C(=O)Nc1cccc2ccccc12,inactive: 14.4%
4,O=C1C=C(c2ccccc2Oc2ccccc2)C[C@@H](c2ccc3c(c2)OCO3)C1,inactive: 0%
5,O=C(CSc1nnc2ccccn12)NNC(=O)c1ccc(Cl)cc1,inactive: 0%
6,CNC(=O)c1[nH]cnc1C(=O)Nc1ccccc1C,inconclusive: -44.9%
7,CCc1nc2ccc(C(=O)NCCN3CCNC3=O)cn2c1N(C)CCC(C)C,inconclusive: -38.3%
8,O=C(C(c1ccccc1)c1ccccc1)N1CCN(Cc2ccc(Br)cc2)CC1,inconclusive: -33.7%
9,NS(=O)(=O)c1cccc(NC(=O)COC(=O)/C(=C/c2cccs2)c2cccs2)c1,inconclusive: -31.3%
10,CN(C)CC1(c2ccccc2)CCCC1,inconclusive: -40.9%
11,COCCCNC(=O)c1cccc(C(=O)NCCCOC)c1,inconclusive: -35.2%
12,O=S(=O)(c1ccc2c(c1)OCCO2)N1CCC(c2nc3ccc(Cl)cc3[nH]2)CC1,inconclusive: -38%
13,O=C(Oc1cccc2cccnc12)c1cccs1,inconclusive: -39.4%
14,COc1ccc(/C=N\Nc2ccc([N+](=O)[O-])cc2[N+](=O)[O-])c(C(=O)O)c1OC,inconclusive: -39.5%
15,Cc1ccc(S(=O)(=O)N/N=C/c2cccc(OC3CSC3)c2)cc1,inconclusive: -45.5%
16,O=C(Nc1ccccc1)c1sc(N2CCOCC2)nc1-c1ccccc1,inactive: -2.7%
17,CCc1cccc2c(C=C(C#N)C#N)cn(CC(=O)N3CCCCC3)c12,inconclusive: -39.2%
18,CCN(CC)CCNC(=O)c1cc([N+](=O)[O-])c(N(C)C)cc1OC,active: -92.7%
19,O=C1NC(=O)/C(=C\c2ccccc2Oc2ccc(F)c(F)c2)S1,inactive: -5.03%
20,COc1ccc2[nH]c(C)c(CCNC(=S)Nc3cc(C)ccc3C)c2c1,inconclusive: -31.8%
21,OC1(c2ccc(Cl)cc2)CCN(Cc2cn[nH]c2-c2ccccc2)CC1,active: -97.6%
22,NS(=O)(=O)c1ccc(NCc2cc(Cl)ccc2OCc2ccc(F)cc2)cc1,inactive: -21.1%

# Some of these compounds in order of length of the SMILES, descending.
row,SMILES,"max response, negative = inhibition"
17,CC[C@]12c3[nH]c4cc(CCC(=O)N(C)C)ccc4c3CCN1C(=O)[C@@H](CC(=O)NCCCn1ccnc1)C[C@@H]2C(=O)N1CCN(C(=O)c2ccco2)CC1,inactive: 5.08%
22,C[C@@H]1[C@H]2[C@@H]3CC[C@@H](C3)[C@H]2CN[C@H]1c1cn(Cc2ccccc2)c2ccccc12,inactive: 21.1%
14,COc1ccc(/C=N\Nc2ccc([N+](=O)[O-])cc2[N+](=O)[O-])c(C(=O)O)c1OC,inconclusive: -39.5%
10,O=C(NCc1ccccc1Cl)c1ccc2c(=O)n(CCCN3CCCC3=O)c(=S)[nH]c2c1,inconclusive: -34.4%
12,O=S(=O)(c1ccc2c(c1)OCCO2)N1CCC(c2nc3ccc(Cl)cc3[nH]2)CC1,inconclusive: -38%
11,COc1cc(/C=C/C(=O)c2ccc3c(c2)OCCO3)cc(Br)c1OCC(=O)N(C)C,inconclusive: -42%
7,Clc1ccc(CNc2nc(CN3CCOCC3)nc3scc(-c4ccccc4)c23)cc1,inactive: -4.96%
12,COC(=O)c1c(NC(=O)/C=C/C(=O)O)sc(C)c1-c1ccc(C)cc1,inconclusive: -36.5%
4,O=C(Nc1ccncc1)C1CCN(S(=O)(=O)c2c(Cl)cccc2Cl)CC1,inactive: 0%
18,Cc1cccc(C(=O)N/N=C2\CS(=O)(=O)N(C)c3ccsc32)c1,inactive: -21.5%
20,COc1ccc2[nH]c(C)c(CCNC(=S)Nc3cc(C)ccc3C)c2c1,inconclusive: -31.8%
8,CN(C)Cc1c(C(=O)N/N=C/c2ccncc2)nnn1-c1nonc1N,inconclusive: -35.9%
19,O=C1NC(=O)/C(=C\c2ccccc2Oc2ccc(F)c(F)c2)S1,inactive: -5.03%
1,O=C(Nc1ccccc1)NC1CCN(Cc2nnnn2C2CCCCC2)CC1,active: -69.8%
13,CCOC(=O)/C(=C\c1ccc(C)cc1)NC(=O)c1ccccc1,inactive: 7.55%
2,CCc1ccc(-c2ccc(SCC(=O)NCC3CCCO3)nn2)cc1 (stereo not drawn),inactive: -19.9%
22,Cc1ccc(C(=O)NCC(c2ccco2)N2CCCCC2)s1 (stereo not drawn),inconclusive: -37.6%
21,COc1ccccc1CNC(=O)c1cnc2ccccn2c1=O,inconclusive: -42.7%
6,CNC(=O)c1[nH]cnc1C(=O)Nc1ccccc1C,inconclusive: -44.9%
20,Cc1cccc(/C=N\NC(=O)c2csnn2)c1,active: -91.4%
13,O=C(Oc1cccc2cccnc12)c1cccs1,inconclusive: -39.4%
16,Oc1c(CN2CCCCC2)ccc2cccnc12,inconclusive: -30.1%
9,CNCCCOc1cccc(Oc2ccccc2)c1,inconclusive: -36.9%
10,CN(C)CC1(c2ccccc2)CCCC1,inconclusive: -40.9%
